Reference: article PMC12623955
These are yes or no findings as the source states them, for the method shown. In cells and extracts the contact can be indirect. A yes stands for co-enrichment or nearness to the bait. Other partners may have been found.

Molecular target: T1, Heme oxygenase 1 (HMOX1) (rat (endogenous in PC12)) (UniProt P06762)
T1 sequence: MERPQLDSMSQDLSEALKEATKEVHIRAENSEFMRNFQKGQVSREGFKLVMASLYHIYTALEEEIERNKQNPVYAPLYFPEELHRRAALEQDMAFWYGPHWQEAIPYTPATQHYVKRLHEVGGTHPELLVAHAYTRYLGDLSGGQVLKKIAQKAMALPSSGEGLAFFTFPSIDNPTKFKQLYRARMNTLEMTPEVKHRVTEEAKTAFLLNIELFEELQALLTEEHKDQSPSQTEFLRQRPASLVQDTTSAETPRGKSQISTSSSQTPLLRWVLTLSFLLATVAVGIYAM
Assay: affinity purification with mass spectrometry; IP from total protein of PC12 cells with specific antibodies and protein A/G-agarose beads, then MS of the immunoprecipitates; HMOX1 as bait

For BNIP3 (rat (endogenous in PC12)), the binding was “binds”.
